No constants are given. Whether binding was seen depends on the method and setting. Binding can be weak; no strength is given.
Experiments:
[1] = target: T1, paired immunoglobulin receptor B (PIR-B) (murine) (UniProt P97484); assay: flow cytometry, human CSP on Bw cells expressing PIR-B (FIG. 2c)
T1 sequence (looked up): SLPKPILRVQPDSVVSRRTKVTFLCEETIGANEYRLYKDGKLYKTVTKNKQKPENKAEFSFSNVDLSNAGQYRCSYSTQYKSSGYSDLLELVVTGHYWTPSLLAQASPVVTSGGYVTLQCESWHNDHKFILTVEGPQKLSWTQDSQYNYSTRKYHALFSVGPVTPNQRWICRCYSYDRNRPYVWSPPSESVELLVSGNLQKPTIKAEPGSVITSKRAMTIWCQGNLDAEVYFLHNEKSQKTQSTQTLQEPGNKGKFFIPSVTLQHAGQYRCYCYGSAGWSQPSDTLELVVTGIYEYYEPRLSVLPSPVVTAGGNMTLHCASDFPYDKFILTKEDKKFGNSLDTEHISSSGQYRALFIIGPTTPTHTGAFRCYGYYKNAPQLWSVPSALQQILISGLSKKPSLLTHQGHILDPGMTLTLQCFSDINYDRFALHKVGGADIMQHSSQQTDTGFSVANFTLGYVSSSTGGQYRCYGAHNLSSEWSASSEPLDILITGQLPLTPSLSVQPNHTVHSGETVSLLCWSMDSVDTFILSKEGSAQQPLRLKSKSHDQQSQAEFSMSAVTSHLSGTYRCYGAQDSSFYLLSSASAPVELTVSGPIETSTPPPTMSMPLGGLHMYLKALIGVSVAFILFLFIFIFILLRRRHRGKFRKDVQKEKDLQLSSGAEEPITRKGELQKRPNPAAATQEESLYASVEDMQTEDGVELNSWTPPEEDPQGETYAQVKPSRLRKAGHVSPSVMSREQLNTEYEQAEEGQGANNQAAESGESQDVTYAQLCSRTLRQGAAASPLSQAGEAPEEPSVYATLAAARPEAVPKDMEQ

Sequences of proteins named here, by UniProt entry; tags and fusion partners are left off. A change or cut given only in a name is not applied to a line headed by its entry. Residues count along the entry.
UniProt P01024: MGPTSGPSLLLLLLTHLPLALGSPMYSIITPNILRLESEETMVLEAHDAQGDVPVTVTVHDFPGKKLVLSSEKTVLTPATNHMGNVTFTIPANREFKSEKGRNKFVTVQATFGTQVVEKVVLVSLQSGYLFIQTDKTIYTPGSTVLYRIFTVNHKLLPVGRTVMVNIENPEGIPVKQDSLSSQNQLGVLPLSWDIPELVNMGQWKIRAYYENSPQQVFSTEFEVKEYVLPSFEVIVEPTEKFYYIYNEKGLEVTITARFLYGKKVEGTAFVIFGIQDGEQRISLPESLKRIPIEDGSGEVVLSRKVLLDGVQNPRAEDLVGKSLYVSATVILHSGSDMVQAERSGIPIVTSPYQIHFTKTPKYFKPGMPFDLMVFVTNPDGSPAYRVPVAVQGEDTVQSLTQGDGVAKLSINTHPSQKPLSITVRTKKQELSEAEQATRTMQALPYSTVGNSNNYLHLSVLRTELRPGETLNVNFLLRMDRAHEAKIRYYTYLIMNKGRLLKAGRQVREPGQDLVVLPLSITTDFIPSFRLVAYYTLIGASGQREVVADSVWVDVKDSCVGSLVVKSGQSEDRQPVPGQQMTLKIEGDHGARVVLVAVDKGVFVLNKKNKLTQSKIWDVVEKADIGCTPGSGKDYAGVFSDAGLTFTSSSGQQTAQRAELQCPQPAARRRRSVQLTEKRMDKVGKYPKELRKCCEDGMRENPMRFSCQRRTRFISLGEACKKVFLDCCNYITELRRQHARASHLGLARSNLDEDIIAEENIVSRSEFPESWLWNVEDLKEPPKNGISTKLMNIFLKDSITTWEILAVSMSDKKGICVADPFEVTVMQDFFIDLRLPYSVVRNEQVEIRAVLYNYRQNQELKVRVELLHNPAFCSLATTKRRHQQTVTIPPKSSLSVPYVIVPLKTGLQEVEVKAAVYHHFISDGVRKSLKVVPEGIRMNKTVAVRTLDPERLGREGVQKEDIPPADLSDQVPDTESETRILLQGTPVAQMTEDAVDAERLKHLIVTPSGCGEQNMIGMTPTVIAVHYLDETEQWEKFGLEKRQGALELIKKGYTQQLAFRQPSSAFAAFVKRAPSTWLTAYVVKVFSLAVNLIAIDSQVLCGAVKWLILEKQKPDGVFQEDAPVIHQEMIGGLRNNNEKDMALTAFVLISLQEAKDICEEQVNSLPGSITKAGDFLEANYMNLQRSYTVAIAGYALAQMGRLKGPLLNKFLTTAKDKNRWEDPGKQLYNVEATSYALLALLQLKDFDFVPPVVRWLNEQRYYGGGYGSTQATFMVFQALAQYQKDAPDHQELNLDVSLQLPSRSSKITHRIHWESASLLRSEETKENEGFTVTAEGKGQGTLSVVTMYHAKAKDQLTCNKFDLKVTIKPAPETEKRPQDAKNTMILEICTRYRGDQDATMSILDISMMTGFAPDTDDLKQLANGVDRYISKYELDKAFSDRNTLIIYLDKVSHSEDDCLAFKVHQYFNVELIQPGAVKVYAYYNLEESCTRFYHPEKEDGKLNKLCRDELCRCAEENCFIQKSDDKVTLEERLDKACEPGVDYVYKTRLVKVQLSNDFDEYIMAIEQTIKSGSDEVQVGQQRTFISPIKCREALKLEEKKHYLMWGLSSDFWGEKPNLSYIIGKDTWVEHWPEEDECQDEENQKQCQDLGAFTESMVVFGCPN
UniProt P17927, residues 42-1971: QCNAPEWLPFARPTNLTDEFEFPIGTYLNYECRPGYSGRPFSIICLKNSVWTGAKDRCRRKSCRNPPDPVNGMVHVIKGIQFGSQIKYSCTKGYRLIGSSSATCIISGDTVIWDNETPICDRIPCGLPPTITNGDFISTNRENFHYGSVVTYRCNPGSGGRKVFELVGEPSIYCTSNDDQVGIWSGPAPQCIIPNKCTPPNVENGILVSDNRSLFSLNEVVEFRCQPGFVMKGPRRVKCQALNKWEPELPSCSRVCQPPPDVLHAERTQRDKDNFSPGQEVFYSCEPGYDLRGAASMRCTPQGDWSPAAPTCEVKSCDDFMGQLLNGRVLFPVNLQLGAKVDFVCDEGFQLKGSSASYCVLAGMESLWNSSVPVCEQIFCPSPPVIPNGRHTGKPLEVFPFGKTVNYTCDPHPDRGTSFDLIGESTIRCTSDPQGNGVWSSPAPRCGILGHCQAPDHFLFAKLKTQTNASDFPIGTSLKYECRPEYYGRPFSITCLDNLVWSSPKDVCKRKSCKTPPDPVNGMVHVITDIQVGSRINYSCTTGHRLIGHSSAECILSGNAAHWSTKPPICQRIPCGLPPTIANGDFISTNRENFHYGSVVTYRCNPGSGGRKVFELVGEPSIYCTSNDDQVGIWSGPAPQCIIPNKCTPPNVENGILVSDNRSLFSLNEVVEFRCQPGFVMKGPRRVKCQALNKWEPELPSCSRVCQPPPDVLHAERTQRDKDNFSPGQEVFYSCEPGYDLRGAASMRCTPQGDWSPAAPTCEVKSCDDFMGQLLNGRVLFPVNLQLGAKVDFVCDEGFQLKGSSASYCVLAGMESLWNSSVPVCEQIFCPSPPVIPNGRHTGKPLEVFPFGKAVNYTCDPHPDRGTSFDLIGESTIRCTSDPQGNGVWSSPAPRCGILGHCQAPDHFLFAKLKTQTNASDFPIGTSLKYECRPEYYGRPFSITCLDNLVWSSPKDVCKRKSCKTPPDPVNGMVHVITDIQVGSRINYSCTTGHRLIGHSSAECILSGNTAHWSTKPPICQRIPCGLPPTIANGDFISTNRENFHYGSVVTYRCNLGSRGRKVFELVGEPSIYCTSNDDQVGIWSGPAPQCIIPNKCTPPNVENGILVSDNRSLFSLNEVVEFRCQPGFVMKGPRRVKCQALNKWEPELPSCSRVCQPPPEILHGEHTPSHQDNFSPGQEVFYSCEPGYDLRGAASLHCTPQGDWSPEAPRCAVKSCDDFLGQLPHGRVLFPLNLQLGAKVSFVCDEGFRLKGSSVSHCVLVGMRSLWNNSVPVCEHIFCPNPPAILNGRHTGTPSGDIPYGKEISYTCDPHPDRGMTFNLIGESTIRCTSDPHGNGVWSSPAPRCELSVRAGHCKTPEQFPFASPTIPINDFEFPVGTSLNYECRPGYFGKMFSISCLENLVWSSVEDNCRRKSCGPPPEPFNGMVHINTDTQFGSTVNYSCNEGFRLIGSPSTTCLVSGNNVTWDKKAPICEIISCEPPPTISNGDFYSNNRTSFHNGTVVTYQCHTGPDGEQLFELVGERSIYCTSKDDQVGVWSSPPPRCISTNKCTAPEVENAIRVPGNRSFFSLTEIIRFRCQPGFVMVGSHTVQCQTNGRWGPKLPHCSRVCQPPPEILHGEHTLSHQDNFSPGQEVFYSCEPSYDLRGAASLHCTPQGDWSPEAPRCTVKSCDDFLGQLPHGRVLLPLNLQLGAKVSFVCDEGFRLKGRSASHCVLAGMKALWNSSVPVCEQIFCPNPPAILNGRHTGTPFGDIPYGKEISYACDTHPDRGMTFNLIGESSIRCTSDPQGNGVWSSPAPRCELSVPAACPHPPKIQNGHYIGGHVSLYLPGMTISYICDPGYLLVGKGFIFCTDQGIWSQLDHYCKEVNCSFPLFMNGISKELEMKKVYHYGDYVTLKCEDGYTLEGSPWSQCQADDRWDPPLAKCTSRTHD

[2] = target: isolated human C3b (ih-C3b) (human) (UniProt P01024); assay: ELISA, plate-bound CSP (465 nM) probed with sCD35 (5 µg/ml) (FIG. 5d)
[3] = target: isolated human iC3b (ih-iC3b) (human) (UniProt P01024); assay: as above

isolated human C3b (ih-C3b) (from UniProt P01024) (ligand)
binding [1]: binds

isolated human iC3b (ih-iC3b) (from UniProt P01024) (ligand)
binding [1]: binds

soluble recombinant human CD35 extracellular domain (sCD35) (from UniProt P17927 42-1971) (receptor)
binding [2]: binds | binding [3]: binds

From US20150191520A1
